The other results are listed elsewhere or left out.
B1: il2ra_site2_2erj_sap_25_mot_dcd9809507f71d420582ead1f1e1bbb3_0001_000000226_0001_37_50_H_._HHH_b2_03591_af2_0001_0000300010_0000001_0_0001 (protein)
chain: SSSSDEELRRLYKLLAELLRLRAENDREEFEKIYEEAEELARELNSPVVEKLLEFLEKEINSSSS
B2: il2ra_site1_2b5i_sap_12_mot_HHH_b2_04373_af2_000000166_0001_1_14_H_._HHH_b1_04169_0001_0000700025_0000001_0_0001_af2pred_0001_af2pred (protein)
chain: SSSSSEEVIELLHEANELFKQGNHEEAEKVLREAEELARELNNRSARKLIEAALRIIEEWLSSSS
B3: il2ra_site1_1z92_sap_13_mot_HHH_b2_04969_af2_000000243_0001_39_51_H_._HHH_b2_07732_af2_0001_0000100009_0000001_0_0001_af2pred_0001_af2pred (protein)
chain: SIEEDLELSLRRGIPPEQIVRVAIRTLESDGIPPEEAIELVLEAARKLNDPELEEIAEELLRKLP
B4: il2ra_site1_2b5i_normal_mot_HHH_b2_00231_000000175_0001_20_36_H_._HHH_b2_07547_0001_0000100002_0000001_0_af2pred_0001_af2pred (protein)
chain: SSSSDVWELYLRASRLFLRGNPEEAERLLEEAIELAERLGDPEIAKQLEEMLRHVRRSLSSSSSS
B5: il2ra_site1_2b5i_normal_mot_HHH_b1_01949_af2_000000166_0001_1_19_H_._HHH_b2_06657_af2_0001_0000100008_0000001_0_af2pred_0001_af2pred (protein)
chain: SSSSDEEVHEVTELYREASELFRRGNQEQARKLLEEALELAEKAGDEVAVRDLEHILERLKSSSS
B6: il2ra_site2_2erj_normal_mot_ems_3hC_1315_af2_000000245_0001_45_63_H_._HHH_b1_05944_af2_0001_0000200026_0000001_0 (protein)
chain: SSSSSELEEFIRELVEEFNLSEEAKEALERTAEIAKEQGVDEEYIKLFLRRLAEELEEQASSSSS
B7: il2ra_site2_2erj_normal_mot_HHH_b1_03107_000000098_0001_39_52_H_._HHH_b1_04164_0001_0000100006_0000001_0 (protein)
chain: SSSSDKEIWEEVAELLLELAELFRRGDEERARELLEEAEELAKELNSDALERYIRFVERDLSSSS
B8: il2ra_site1_1z92_normal_mot_108be8bf5286040dcbfed5edda487183_0001_000000086_0001_19_33_H_._26f414d7b340708b6e9383f836a3294b_0001_0001_0000300045_0000001_0_af2pr … (protein)
chain: PKVLEKLFEFARKEGAPPELVARHLLHALKKLGKPPEEVERLVREVLEELLGDPEEAKRVLEEAK
B9: il2ra_site2_2erj_sap_28_mot_HHH_b2_01204_af2_000000056_0001_19_34_H_._HHH_b2_03542_af2_0001_0000200007_0000001_0_0001 (protein)
chain: SSSSDADELAIEAVEALIRLARNGNEEEARELAEEVRKELEELGDPNLARFIELALRDLRSSSSS
B10: il2ra_site2_3nfp_sap_23_mot_HHH_b1_03600_000000077_0001_18_34_H_._HHH_b2_04836_0001_0000300027_0000001_0_0001 (protein)
chain: SSSSDIEEAAHLLRQFAEALKDPELQEEVEELTEEAEKEGDERLLEEAAFRVYRVARKRNSSSSS
B11: il2ra_site2_2erj_sap_12_mot_e3be008b04150b5953e9f850c9479793_0001_000000253_0001_15_29_H_._HHH_b2_03566_0001_0000200003_0000001_1_0001 (protein)
chain: SSSSDEKLRRLYELAVRLTRLVAEGDEEEFEKVLEEAKELAQELDSENAKEILENLEKLLSSSSS
B12: il2ra_site2_3nfp_normal_mot_HHH_b1_01086_000000225_0001_20_36_H_._HHH_b1_06364_af2_0001_0000200004_0000001_0 (protein)
chain: SSSSDEEEIEQLIEEVKELLKRGNPEEAQRVLQEALHLAYELGNFRLFAELADLSVLAYELSSSS
B13: il2ra_site1_1z92_normal_mot_818a9d7520499bc24e5218c3ec3bba43_0001_000000166_0001_34_49_H_._66959ead3e6c57cb3ef8243f3eb758e0_0001_1_af2_0001_0000500046_0000001_0 … (protein)
chain: STAEEDLREAVEKNDEELLREFIELLLKDAGDPKLVELLLRILVRRLGLPPEVLEELRELLEELT
B14: il2ra_site2_2erj_normal_mot_HHH_b1_06554_000000001_0001_44_57_H_._HHH_b1_02402_0001_0000200030_0000001_0_af2pred_0001_1_af2pred_swapped (protein)
chain: SSSSSLERIFELAHEASELLAKGDDEEARRVVEEAEELARESDSKSAERALEFALKSIESLSSSS
B15: il2ra_site1_2b5i_normal_mot_HHH_b2_06557_000000121_0001_42_56_H_._HHH_b2_02809_0001_0000100007_0000001_0 (protein)
chain: SSSSSADEIAEEAHHEASRLWRNGNPEEAEKILEEAAELIRELNDERNLKQLEEYLRFLNSSSSS
B16: il2ra_site1_2b5i_sap_10_mot_HHH_b1_05489_000000003_0001_1_19_H_._HHH_b2_06282_af2_0001_0000500016_0000001_0_0001_af2pred_dldesign_0_af2pred (protein)
chain: SSSSSSSSNWKQLLLRADAAYKAGDVEELERLLREAEAAGYTKVARIIREAIEALLESSSSSSSS
B17: il2ra_site2_3nfp_normal_mot_HHH_b1_02962_000000041_0001_43_56_H_._HHH_b2_04661_af2_0001_0000300012_0000001_0 (protein)
chain: SSSSDEERLRKLLKELEELAEEGDEEEFRELVRELSQLIFELGDSEAFFILAELLFRFEQKSSSS
B18: il2ra_site1_2b5i_sap_17_mot_HHH_b2_03242_af2_000000120_0001_1_19_H_._8d84ef60cc1e3adad24f3638b402ac36_0001_1_af2_0001_0000300012_0000001_0_0001 (protein)
chain: SSSSDIEERIDELFREASRLWREGNPEEARELLEEALELAEEANDPNTARDIERFLRLKGSSSSS
B19: il2ra_site1_1z92_sap_14_mot_22aa8d8ad8dce7f663ea8fa348a52261_0001_000000005_0001_37_51_H_._HEEHE_1847_af2_0002_0000300017_0000001_0_0001_af2pred_dldesign_0_af2p … (protein)
chain: SLEELLERLAKLLGVDPSTVKSMLDALTKLTGDRRKAVRNFLTFLKKSGLLTPEVEALLRRIEEE

target: il2ra, P01589; experiment: yeast display titration

Apparent Kd, inactive:
B1 no binding seen
B2 no binding seen
B3 no binding seen
B4 no binding seen
B5 > 2.63 nM
B6 no binding seen
B7 no binding seen
B8 no binding seen
B9 no binding seen
B10 no binding seen
B11 no binding seen
B12 no binding seen
B13 no binding seen
B14 no binding seen
B15 no binding seen
B16 no binding seen
B17 no binding seen
B18 no binding seen
B19 no binding seen

Two entries picked at random from those above:
Apparent Kd, inactive:
B2 no binding seen
B11 no binding seen
